Source: patent US20220289794A1, “SYNTHETIC ANTIMICROBIAL PEPTIDES” (priority 2019, published 2022)
≈ marks a conversion by molar mass, not a printed value. For some of these results: Part of at least one peptide drawing is inferred or uncertain, most often the ends. Some of these results come from one statement about several compounds together. Non-standard residues stand in square brackets, D forms with d. Residues, ends and D or L forms follow the SMILES beside them. 2Nal = N[C@@H](Cc1ccc2ccccc2c1)C(=O)O; d2Nal = N[C@H](Cc1ccc2ccccc2c1)C(=O)O

Legend:
[1] = tested on: Clostridium difficile (ATCC 700057); test: MIC determination, broth microdilution (CLSI); type: cell-based
[2] = tested on: Clostridium difficile (NAP1/027); test: MIC determination, broth microdilution (CLSI); type: cell-based
[3] = tested on: K. pneumoniae strain ATCC BAA-2470 biofilm; settings: concentrations ranging from 50 mg/mL to […]

SMILES	MIC90 [1]	MIC95 [1]	MIC99 [1]	MIC90 [2]	MIC95 [2]	MIC99 [2]	inhibition of biofilm formation [3]
N=C(N)NCCC[C@@H]1NC(=O)[C@H](CCCNC(=N)N)NC(=O)[C@H](CCCNC(=N)N)NC(=O)[C@H](Cc2c[nH]c3ccccc23)NC(=O)[C@H](Cc2ccc3ccccc3c2)NC(=O)[C@H](Cc2ccc3ccccc3c2)NC(=O)[C@H](CCCNC(=N)N)NC1=O [IFX-031, c[Arg-Arg-Arg-Arg-NaI-NaI-Trp]] (cyclo(RRRR[2Nal][2Nal]W))	12.5 µg/mL (≈ 10.4 µM)	12.5 µg/mL (≈ 10.4 µM)	25 µg/mL (≈ 20.7 µM)	15.	25 µg/mL (≈ 20.7 µM)	25 µg/mL (≈ 20.7 µM)	–
N=C(N)NCCC[C@@H]1NC(=O)[C@@H](CCCNC(=N)N)NC(=O)[C@H](CCCNC(=N)N)NC(=O)[C@@H](Cc2ccc3ccccc3c2)NC(=O)[C@@H](Cc2ccc3ccccc3c2)NC(=O)[C@H](Cc2c[nH]c3ccccc23)NC(=O)[C@@H](CCCNC(=N)N)NC1=O [IFX-111, c[Arg-arg-Arg-arg-Trp-naI-naI]] (cyclo(R[dR]R[dR]W[d2Nal][d2Nal]))	12.5 µg/mL (≈ 10.4 µM)	12.5 µg/mL (≈ 10.4 µM)	12.5 µg/mL (≈ 10.4 µM)	6.25 µg/mL (≈ 5.18 µM)	6.25 µg/mL (≈ 5.18 µM)	6.25 µg/mL (≈ 5.18 µM)	–
CN(C)c1cc(NC(=O)CNC(C)(C)C)c(O)c2c1C[C@H]1C[C@H]3[C@H](N(C)C)C(O)=C(C(N)=O)C(=O)[C@@]3(O)C(O)=C1C2=O [Tigecycline, reference compound]	–	–	–	–	–	–	≤ 50%
